Patent US20060099580A1
No constants are given. Whether binding was seen depends on the method and setting. Some results given as binding are weak or reduced against the parent protein; the word gives no strength.

Sequences of proteins named here, by UniProt entry; tags and fusion partners are left off. A change or cut given only in a name is not applied to a line headed by its entry.
UniProt Q92769: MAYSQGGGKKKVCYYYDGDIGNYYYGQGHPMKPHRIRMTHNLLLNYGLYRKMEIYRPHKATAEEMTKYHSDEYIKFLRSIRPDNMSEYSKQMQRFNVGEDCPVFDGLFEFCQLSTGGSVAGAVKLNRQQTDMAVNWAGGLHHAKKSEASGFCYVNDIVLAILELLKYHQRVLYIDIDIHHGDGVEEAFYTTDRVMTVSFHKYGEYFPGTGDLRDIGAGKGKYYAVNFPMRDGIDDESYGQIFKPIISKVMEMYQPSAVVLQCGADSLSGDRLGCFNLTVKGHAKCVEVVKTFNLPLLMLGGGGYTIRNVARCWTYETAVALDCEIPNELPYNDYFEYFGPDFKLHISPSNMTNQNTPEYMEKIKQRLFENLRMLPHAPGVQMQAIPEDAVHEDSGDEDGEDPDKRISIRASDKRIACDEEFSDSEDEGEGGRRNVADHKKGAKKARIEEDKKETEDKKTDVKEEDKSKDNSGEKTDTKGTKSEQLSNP
UniProt A6NE82: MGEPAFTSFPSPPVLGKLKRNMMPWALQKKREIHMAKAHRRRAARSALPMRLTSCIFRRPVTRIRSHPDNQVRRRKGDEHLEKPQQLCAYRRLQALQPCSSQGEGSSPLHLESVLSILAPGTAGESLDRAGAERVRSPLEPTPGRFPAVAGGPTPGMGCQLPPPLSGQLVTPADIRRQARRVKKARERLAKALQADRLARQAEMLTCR
UniProt Q8WWY6: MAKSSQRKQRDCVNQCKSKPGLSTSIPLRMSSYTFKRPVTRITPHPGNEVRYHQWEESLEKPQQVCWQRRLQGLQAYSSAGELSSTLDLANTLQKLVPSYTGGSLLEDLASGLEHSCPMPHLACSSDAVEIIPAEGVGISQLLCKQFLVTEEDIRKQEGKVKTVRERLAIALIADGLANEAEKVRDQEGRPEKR

Tests used:
[1] = biological target: histone deacetylase HDAC2 (UniProt Q92769); assay: isolation of HDAC2 complexes (figure legend)
[2] = biological target: histone deacetylase HDAC2 (UniProt Q92769); assay: isolation of HDAC2 complexes from cells, analysed for associated proteins
[3] = biological target: histone deacetylase HDAC2 (UniProt Q92769); assay: HDAC2 complexes isolated with constant MBD2 and increasing homolog protein

Row | binding [1] | binding [2] | binding [3] | Substance
1 | binds | binds | binds | MBD2-C-Terminal Homolog 1 (MBD2-CTH1) (from UniProt A6NE82 1-208)
2 | binds | binds | binds | MBD2-C-Terminal Homolog 2 (MBD2-CTH2) (from UniProt Q8WWY6 1-194)
